Assay results reported in patent US20120201824A1, “Compositions and Methods for Inhibiting an Oncogenic Protein to Enhance Immunogenicity” (priority 2008, published 2012).
At least one structure is not confirmed: it was looked up by name or label, or the drawing left a doubt.

Assays:
CD274 mRNA = assay: RT-PCR for CD274 mRNA in ALK+ TCL cells; format: cell-based, human; conditions: SUDHL-1 cells; rapamycin 300 nM, wortmannin 20 nM, U0126 15 μM, Jak3 inhibitor 1 μM
Procedure: Total RNA was isolated using RNeasy Mini kit (Qiagen), treated with DNase I (Invitrogen), and reverse-transcribed by using Thermoscript RT-PCR system (Invitrogen) with random hexamers as cDNA synthesis primers. The following primer pairs were used for the cDNA amplification: β-actin, 5'[…] ID NO: 1) and 5'[…] ID NO: 2); CD274, 5'[…] ID NO: 3) and 5'[…] ID NO: 4). PCR was performed by using Platium […] polymerase (Invitrogen) for 21 cycles comprised of the denaturation step for 20 seconds at 94° C., annealing for 30 seconds at 58° C. and elongation for 30 seconds at 72° C. The PCR products were visualized by ethium bromide staining in 1.5% agarose gel. […] Inhibitors of: […] Marzec et al., 2007, Oncogene 26: 813-821; Marzec et al., 2007, Oncogene 26: 5606-5614; Marzec et al., 2008, Cancer Res 68: 1083-1091). A mixture of four STAT3 or STAT5b specific siRNA or non-targeting siRNA (all purchased from Dharmacon) was introduced into cells at 100 nM by lipofection with the hew generation Lipofectamine (DMRIE-C; Invitrogen). The procedure was repeated after 24 hours and the cells were cultured for an additional 24 hours. The cells were harvested at one time point 48 hours after first transfection. Extend of the protein knock-down was examined by Flow Cytometry and RT-PCR.

CD274 protein = assay: Flow cytometry for cell-surface CD274 protein in ALK+ TCL cells; format: cell-based, human; conditions: SUDHL-1 cells; rapamycin 300 nM, wortmannin 20 nM, U0126 15 μM, Jak3 inhibitor 1 μM
Procedure: All antibodies were purchased from BD Pharmingen. The stained cells were applied to the flow cytometer (FACSCalibur; Becton Dickinson), and 20,000 events were analyzed. Results of the cell staining are presented as histograms with cell number on the vertical axis and relative fluorescence on the logarithmic horizontal axis. […] Inhibitors of: […] Marzec et al., 2007, Oncogene 26: 813-821; Marzec et al., 2007, Oncogene 26: 5606-5614; Marzec et al., 2008, Cancer Res 68: 1083-1091). A mixture of four STAT3 or STAT5b specific siRNA or non-targeting siRNA (all purchased from Dharmacon) was introduced into cells at 100 nM by lipofection with the hew generation Lipofectamine (DMRIE-C; Invitrogen). The procedure was repeated after 24 hours and the cells were cultured for an additional 24 hours. The cells were harvested at one time point 48 hours after first transfection. Extend of the protein knock-down was examined by Flow Cytometry and RT-PCR.

SMILES | CD274 expression on the mRNA level (RT-PCR) (CD274 mRNA) | CD274 expression on the protein level (flow cytometry) (CD274 protein)
COC[C@H]1OC(=O)c2coc3c2[C@@]1(C)C1=C(C3=O)[C@@H]2CCC(=O)[C@@]2(C)C[C@H]1OC(C)=O [wortmaninn, wortmannin] | no detectable impact | no detectable impact
CO[C@H]1C[C@@H]2CC[C@@H](C)[C@@](O)(O2)C(=O)C(=O)N2CCCC[C@H]2C(=O)O[C@H]([C@H](C)C[C@@H]2CC[C@@H](O)[C@H](OC)C2)CC(=O)[C@H](C)/C=C(\C)[C@@H](O)[C@@H](OC)C(=O)[C@H](C)C[C@H](C)/C=C/C=C/C=C/1C [rapamycin] | no detectable impact | no detectable impact
